Results taken from PubChem BioAssay AID720706 (Broad Institute, 2013).
The other results are listed elsewhere or left out.

experiment: reduced GFP signal of wild-type E. coli, primary screen, bacterial rRNA inhibitor project, GFP/RFP fluorescence, OD600, single point (AID 720706); details: E. coli WT GFP vs humanized-ribosome RFP mutants, 24 h; OD600 change: measured here: OD600 growth, DMSO median 0, no signal -100; RFP signal change: measured here: RFP humanized mutant strains, DMSO median 0, no signal -100, concentration not given here

| Compound | OD600 change [%] | RFP signal change [%] |
| --- | --- | --- |
| O=c1[nH]c2ccccc2n1C1CCN(C(c2cccs2)c2nnnn2C2CCCCC2)CC1 (stereo unspecified) | -10.4 | -4.84 |
| O=c1[nH]c2ccccc2n1C1CCN(C(c2ccnc3ccccc23)c2nnnn2C2CCCC2)CC1 (stereo unspecified) | -2.74 | 11.3 |
| COc1ccc(C(=O)NCC2(N3CCOCC3)CCCCC2)cc1OC | 7.78 | 1.21 |
| COc1cc(C(=O)NCC2(N3CCOCC3)CCCCC2)cc(OC)c1C | 2.58 | -1.54 |
| CCCCn1nnnc1C(c1ccccc1)N1CCC(n2c(=O)[nH]c3ccccc32)CC1 (stereo unspecified) | -38.3 | 4.75 |
| O=C(NCC1(N2CCOCC2)CCCCC1)c1cc(Br)ccc1Cl | -31.8 | -3.15 |
| O=c1[nH]c2ccccc2n1C1CCN(C(c2cccs2)c2nnnn2C2CCCC2)CC1 (stereo unspecified) | -14.7 | 1.97 |
| CCCCn1nnnc1C(c1cccc(OC)c1OC)N1CCC(n2c(=O)[nH]c3ccccc32)CC1 (stereo unspecified) | -29.6 | -1.28 |
| COc1cccc(C(c2nnnn2C(C)(C)C)N2CCC(n3c(=O)[nH]c4ccccc43)CC2)c1OC (stereo unspecified) | -22.4 | -1.78 |
| CCOC(=O)N1CCC(Nc2ccc(C)cc2)CC1 | 7.22 | -4.16 |
| O=C(O)C1(Nc2ccccc2)CCN(Cc2ccccc2)CC1 | 14.7 | -0.698 |
| NN(c1ccccc1)C1CCN(CCc2ccccc2)CC1 | 6.35 | -1.58 |
| CC(C)(C)OC(=O)N1CCC(Nc2ccccc2)CC1 | 8.54 | 7.35 |
| CCCOc1ccc(C(=O)NCC2(N(C)C)CCCCC2)cc1 | 17.1 | 3.79 |
| O=c1[nH]c2ccccc2n1C1CCN(C(c2cc3ccccc3o2)c2nnnn2C2CCCC2)CC1 (stereo unspecified) | 11.1 | 2.68 |
| CN1CCC(Nc2ccc(F)c(Cl)c2)CC1 | -0.87 | 0.468 |
| CN1CCC(Nc2ccc(Cl)cc2)CC1 | 2.58 | 4.91 |

| Compound | OD600 change [%] | RFP signal change [%] |
| --- | --- | --- |
| COc1cc(OC)cc(C(=O)NCC2(N3CCOCC3)CCCCC2)c1 | -5.12 | 0.81 |
| COc1cccc(C(c2nnnn2C2CCCC2)N2CCC(n3c(=O)[nH]c4ccccc43)CC2)c1OC (stereo unspecified) | -20.5 | -4.46 |
| COc1cccc(C(=O)N(c2cc(C)cc(C)c2)C2CCN(C(=O)OC(C)(C)C)CC2)c1 | 2.03 | -1.89 |
| Fc1ccccc1NC1CCN(Cc2ccccc2)CC1 | 8.46 | 2.87 |
| Cc1ccc(C(=O)NCC2(N3CCCCC3)CCCCC2)o1 | 9.98 | 0.135 |
| CCC(c1nnnn1C1CCCCC1)N1CCC(n2c(=O)[nH]c3ccccc32)CC1 (stereo unspecified) | -24.2 | -2.31 |
| CC(=O)N(c1ccccc1)C1CCNCC1 | 14.6 | 0.81 |
| COc1cccc(C(c2nnnn2C2CCCCC2)N2CCC(n3c(=O)[nH]c4ccccc43)CC2)c1OC (stereo unspecified) | 11.4 | -8.53 |
| O=c1[nH]c2ccccc2n1C1CCN(C(c2ccnc3ccccc23)c2nnnn2C2CCCCC2)CC1 (stereo unspecified) | 17.5 | 0.694 |
| COc1cc(OC)cc(C(=O)NCC2(N3CCCCC3)CCCCC2)c1 | 3.67 | 0.025 |
| Cn1c(=O)[nH]cc(N(CCCl)CCCl)c1=O | 25.6 | -0.075 |
| CN(C)c1ccc(C(=O)NCC2(N3CCCCC3)CCCCC2)cc1 | 11.8 | 2.99 |
| O=C(NCC1(N2CCCCC2)CCCCC1)c1ccco1 | 1.77 | 32.8 |
| CC(C)(C)n1nnnc1C(c1ccnc2ccccc12)N1CCC(n2c(=O)[nH]c3ccccc32)CC1 (stereo unspecified) | -37.5 | -6.29 |
| COc1ccc(C(c2nnnn2C2CCCCC2)N2CCC(n3c(=O)[nH]c4ccccc43)CC2)cc1 (stereo unspecified) | -4.28 | 4.36 |
| Cc1ccccc1NC1(C#N)CCN(Cc2ccccc2)CC1 | 17.5 | 2.44 |
